± gives the standard deviation. The entries are a selection whose mix differs from that of the whole data set. The uncertainty is large for many entries.
Test system: EfPiwi piRISC loaded with piRNA #1 (26 nt)
Assay: pre-steady-state target cleavage rate (min^-1); guide: piRNA #1 5'p-UGAGGUAGUAGGUUGUAUAGUAUCCA; MIWI and MILI are mouse PIWI proteins and EfPiwi is from a freshwater sponge; tags in brackets are library labels; higher = faster piRNA-guided slicing of the target
Settings: auxiliary factor: 500 nM Ephydatia muelleri Gtsf1
Procedure, shortened: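 The pre-steady-state cleavage rate was obtained by Cleave-'n-Seq with a burst-and-steady-state fit. A transcribed, DNA-blocked target RNA library (0.1 nM) was mixed with 1 nM active affinity-purified piRISC carrying one synthetic guide, with or without 500 nM GTSF1 partner protein, in HEPES–potassium acetate buffer at 33 °C for 0–8 or 0–960 min. Uncleaved targets were sequenced and normalised to depth and to weakly complementary targets, with three trials pooled and k3 capped at 0.0001 min^-1.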

Sequence | pre-steady-state target cleavage rate
GGAGAGGAUACUAUACAACCUACUACCUCCA | 0.142 ± 0.054
GGAGACCUUAGUAUACAACCUACUAGCUCA | 0.00168 ± 0.0036
GGAGAGGUUACUAUACAUCCUACUACCUCA | 0.00567 ± 0.0029
GGAGACCUAUGAUAUGUUCGUACUACGUCA | 0.000451 ± 0.009
GGAGAGGAUACUAUACAACCUACUACAUCA | 0.00573 ± 0.0027
GGAGAGGAUACUAUACAACCUACUACCCA | 0.0052 ± 0.0025
GGAGACCUUAGUAUAGAACCUACUACCUCA | 0.000735 ± 0.0061
GGAGACGAUACUAUACAACCUACUAUCCUCA | 0.0049 ± 0.0014
GGAGACCUUCCUAUACAACCUACUACCUCA | 0.00433 ± 0.0054
GGAGAGGAUACUAGACAACCUACUACCUCA | 0.0121 ± 0.0055
GGAGACCUAUCUAUACUACCUUCUACCUCA | 0.00101 ± 0.0051
GGAGACCAUACUAUACAACUACUACCUCA | 0.00486 ± 0.0035
GGAGUGGAUACUAUGACAACCUACUACCUCA | 0.0114 ± 0.0053
GGAGACGAUUGUAUACAACCUACUACCUCA | 0.00299 ± 0.0037
GGAGUGGUUACUAUAGAACCUACUACCUCA | 0.00192 ± 0.002
GGAGACCAUACUAUACAACCUACUACUCA | 0.00387 ± 0.0024
GGAGACCUUACUAUACAUCCUACUACGUCA | 0.00307 ± 0.0033
GGAGACCAUACUAUACAACCUACUACGUCA | 0.0053 ± 0.0015
GGAGACCUAUGAUUUGUACCUACUACCUCA | 0.000793 ± 0.0073
GGAGACCAUUCUAUACAACCUAGUACCUCA | 0.00433 ± 0.0024

Sequence | pre-steady-state target cleavage rate
GGAGACGAUAGUAUACAACGUACUACCUCA | 0.00208 ± 0.0029
GGAGUGGAUACUAUACUUCCUACUACCUCA | 0.0195 ± 0.01
GGAGUGGAUACUAUACAACCUACUACCUAA | 0.151 ± 0.054
GGAGAGGAUACAUACAACCUACUACCUCA | 0.0103 ± 0.005
GGAGACCUAUGAUAUGUUCCUACUACCCCA | 0.000529 ± 0.012
GGAGACGUACUAUACAACCUACUACCUCA | 0.0561 ± 0.022
GGAGACCUAUGAUAUGUUGCUACAUCCUCA | 0.000722 ± 0.0047
GGAGACCAUACUAUACAACCAACUACCACA | 0.00394 ± 0.0043
GGAGACCUAACUAUACUACCUAGUACCUCA | 0.000614 ± 0.0045
GGAGACCUUACUAUACAACCUCCUACCUCA | 0.00545 ± 0.003
GGAGACCAAACUUUACAACCUACUACCUCA | 0.011 ± 0.0057
GGAGACCUAUCAUAACAACCUACUACCUCA | 0.00531 ± 0.0037
GGAGACGAUACUAUACAAGCUACUAGCUCA | 0.00375 ± 0.0019
GGAGACCAUACUAUCAACCUACUACCUCA | 0.0101 ± 0.005
GGAGAGGAUAGUAUACAACCUACUACCUGA | 0.00298 ± 0.0022
GGAGACGAUACUAUACAACGAACUACCUCA | 0.00251 ± 0.0024
GGAGACCUAUCUAUUCAACCUACUUCCUCA | 0.0012 ± 0.0064
GGAGACCUUACAAUACAACCUACUACGUCA | 0.00112 ± 0.0048
GGAGACCAUACUAUACUACCUACUUCCUCA | 0.00301 ± 0.0023
GGAGUGGAUUCUAUAGAACCUACUACCUCA | 0.00117 ± 0.0038

Reprinted at random: 2 entries already listed, in no set order.
Sequence | pre-steady-state target cleavage rate
GGAGACGAUACUAUACAACCUACUAUCCUCA | 0.0049 ± 0.0014
GGAGUGGAUUCUAUAGAACCUACUACCUCA | 0.00117 ± 0.0038

— the supplement of paper PMC10338343
